Measured values taken from US20120094864A1.
These are yes or no findings as the source states them, for the method shown. Some entries that bind do so weakly or less than the wild type.

The chains behind the UniProt entries cited, without tags or fusion partners. Residues count along the entry.
UniProt P21802, residues 22-821: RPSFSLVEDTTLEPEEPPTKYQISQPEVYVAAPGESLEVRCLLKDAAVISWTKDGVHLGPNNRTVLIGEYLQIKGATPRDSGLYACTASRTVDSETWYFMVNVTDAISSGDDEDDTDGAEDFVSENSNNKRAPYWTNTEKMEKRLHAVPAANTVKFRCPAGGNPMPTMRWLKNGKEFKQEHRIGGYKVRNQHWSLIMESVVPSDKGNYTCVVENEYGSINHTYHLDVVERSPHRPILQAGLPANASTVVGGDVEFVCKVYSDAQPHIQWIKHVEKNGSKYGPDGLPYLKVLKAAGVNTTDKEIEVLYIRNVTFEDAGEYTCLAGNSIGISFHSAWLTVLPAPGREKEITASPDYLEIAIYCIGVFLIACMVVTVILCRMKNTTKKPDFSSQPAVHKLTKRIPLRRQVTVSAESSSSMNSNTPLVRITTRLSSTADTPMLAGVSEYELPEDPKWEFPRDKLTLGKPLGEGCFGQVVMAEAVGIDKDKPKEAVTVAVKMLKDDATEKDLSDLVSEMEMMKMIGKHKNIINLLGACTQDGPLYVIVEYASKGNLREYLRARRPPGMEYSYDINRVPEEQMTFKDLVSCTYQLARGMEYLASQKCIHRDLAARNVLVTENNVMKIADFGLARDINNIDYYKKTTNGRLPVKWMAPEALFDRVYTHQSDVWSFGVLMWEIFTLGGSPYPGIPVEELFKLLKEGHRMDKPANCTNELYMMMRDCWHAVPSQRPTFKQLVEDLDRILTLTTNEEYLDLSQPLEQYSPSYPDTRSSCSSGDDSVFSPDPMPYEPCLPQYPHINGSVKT

Molecular target: FGFR2 (cell binding assays) (UniProt P21802)
Test: ligand binding assay on intact cells

binding: binds
B1: FGF4 (ligand, UniProt P08620 54-206, looked up)
chain: SLARLPVAAQPKEAAVQSGAGDYLLGIKRLRRLYCNVGIGFHLQALPDGRIGGAHADTRDSLLELSPVERGVVSIFGVASRFFVAMSSKGKLYGSPFFTDECTFKEILLPNNYNAYESYKYPGMFIALSKNGKTKKGNRVSPTMKVTHFLPRL
